The target of assay [1] is human ROR1 (human) (UniProt Q01973). Description: SPR (Biacore 3000).
For assay [2], the target named is mouse ROR1 (mouse) (UniProt Q9Z139). Description: SPR (Biacore 3000). Background: SPR reads the build-up and loss of mass on a sensor chip optically.
For assay [3], the target named is FZD+KRD (human) (UniProt Q01973). Nature of the assay: ELISA, IgG on coated domain, OD450. For orientation: ELISA stands for enzyme-linked immunosorbent assay.
The target in another assay is KRD (human) (UniProt Q01973). Description: ELISA, IgG on coated domain, OD450.
Assay [4] addresses human ROR1 (human) (UniProt Q01973). Nature of the assay: ELISA, IgG on coated human ROR1, OD450.
Assay [5] deals with mouse ROR1 (mouse) (UniProt Q9Z139). Nature of the assay: ELISA, IgG on coated mouse ROR1, OD450.
Assay [6] has as its target FZD+KRD (human) (UniProt Q01973). Nature of the assay: scFv ELISA on coated domain, anti-HA-HRP, OD450.

Protein sequences, listed by entry. Tags and fused reporters are not part of them. Residues count along the entry.
human ROR1 (Q01973, residues 30-403): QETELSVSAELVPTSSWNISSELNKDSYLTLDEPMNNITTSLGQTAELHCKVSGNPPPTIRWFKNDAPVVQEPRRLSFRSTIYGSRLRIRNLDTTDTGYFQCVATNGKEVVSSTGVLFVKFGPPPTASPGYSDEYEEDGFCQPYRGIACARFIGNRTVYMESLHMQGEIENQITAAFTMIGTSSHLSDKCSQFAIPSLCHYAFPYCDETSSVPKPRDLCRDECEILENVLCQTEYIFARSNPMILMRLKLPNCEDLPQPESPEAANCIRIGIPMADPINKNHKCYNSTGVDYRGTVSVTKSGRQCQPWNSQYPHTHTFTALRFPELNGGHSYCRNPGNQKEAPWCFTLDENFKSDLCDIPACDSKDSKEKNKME
FZD+KRD (Q01973, residues 165-395): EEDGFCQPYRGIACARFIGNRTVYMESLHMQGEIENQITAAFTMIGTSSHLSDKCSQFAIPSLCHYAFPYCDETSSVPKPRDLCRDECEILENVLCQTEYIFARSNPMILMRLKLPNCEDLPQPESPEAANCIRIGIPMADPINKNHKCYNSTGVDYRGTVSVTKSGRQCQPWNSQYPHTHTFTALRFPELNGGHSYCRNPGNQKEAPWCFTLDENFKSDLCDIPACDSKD
KRD (Q01973, residues 308-395): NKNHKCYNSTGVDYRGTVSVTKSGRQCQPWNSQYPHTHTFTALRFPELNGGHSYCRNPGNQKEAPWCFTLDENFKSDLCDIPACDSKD
UniProt Q9Z139, residues 30-403: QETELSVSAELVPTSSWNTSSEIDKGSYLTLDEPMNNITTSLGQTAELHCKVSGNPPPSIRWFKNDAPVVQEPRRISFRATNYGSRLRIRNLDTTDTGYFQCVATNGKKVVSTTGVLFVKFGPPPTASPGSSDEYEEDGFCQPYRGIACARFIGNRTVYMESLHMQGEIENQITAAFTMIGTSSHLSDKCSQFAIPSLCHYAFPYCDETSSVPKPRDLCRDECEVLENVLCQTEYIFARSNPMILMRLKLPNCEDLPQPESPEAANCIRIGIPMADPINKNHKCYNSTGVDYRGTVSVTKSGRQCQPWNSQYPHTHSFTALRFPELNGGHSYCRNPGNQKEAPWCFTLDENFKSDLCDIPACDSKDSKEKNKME

Positions count from the first letter of the chain named. Results are given in words; binding and its absence hold for the method and conditions named. Some binding calls cover weakened binding; strength is not graded here.

B1: P015012 (antibody, V domains shown)
VH: EVQLLESGGGLVQPGGSLRLSCAASGFTFSGYSMSWVRQAPGKGLEWVSGISYGGSSISYADSVKGRFTISRDNSKNTLYLQMNSLRAEDTAVYYCAKPVRRWARFRLSYDDAMDVWGQGTLVTVSS
VL: QSVLTQPPSASGTPGQRVTISCSGSSSNIGNNAVNWYQQLPGTAPKLLIYANSHRPSGVPDRFSGSKSGTSASLAISGLRSEDEADYYCGTWDSSLSGYVFGGGTKLTVL
For the molecule B1, the binding result is “binds” with human ROR1 (human) [1]; “binds” in the assay with mouse ROR1 (mouse) [2]; “binds” with FZD+KRD (human) [3]; “no binding (tested: 300 nM)” with KRD (human); “binds” with human ROR1 (human) [4]; “binds” with mouse ROR1 (mouse) [5].

B2: P015012 scFv (scFv, V domains shown)
VH: B1 VH
VL: B1 VL
Take B2: the binding entry in the assay with FZD+KRD (human) [6] is recorded as “binds”.

B3: P015009 scFv (scFv, V domains shown)
VH: EVQLLESGGGLVQPGGSLRLSCAASGFTFSNYSMSWVRQAPGKGLEWVSGIYSGNSNTYYADSVKGRFTISRDNSKNTLYLQMNSLRAEDTAVYYCAKDSRATHHRWHYYDNAMDVWGQGTLVTVSS
VL: B1 VL with S23T, N31S, A33Y, N35S, Q38R, A51S, N52D, H54N
Turning to B3, the binding entry with FZD+KRD (human) [6] is “binds”.

B4: P015013 scFv (scFv, V domains shown)
VH: EVQLLESGGGLVQPGGSLRLSCAASGFTFSSYDMSWVRQVPGKGLEWVSWISHGGGSIYYADSVKGRFTISRDNSKNTLYLQMNSLRAEDTAVYYCARDLSNRLFTGFDYWGQGTLVAVSS
VL: B1 VL with N31S, A33S, N35Y, L47P, A51S, N52D, S94Y, S97N, G98A
As for B4, the binding result with FZD+KRD (human) [6] was “binds”.

B5: P015011 scFv (scFv, V domains shown)
VH: EVQLLESGGGLVQPGGSLRLSCAASGFTFSNYAMSWVRQAPGKGLEWVSGISPDGGSIYYADSVKGRFTISRDNSKNTLYLQMNSLRAEDTAVYYCAKAARLSPSMNYSYAYGMDVWGQGTLVTVSS
VL: B1 VL with S23T, A33Y, N35S, A51S, N52D, S94Y, S97N
Take B5: in the assay with FZD+KRD (human) [6], the binding entry is “binds”.

B6: P015005 (antibody, V domains shown)
VH: EVQLLESGGGLVQPGGSLRLSCAASGFTFSDYSMSWVRQAPGKGLEWVSGISHNGGSTYYADSVKGRFTISRDNSKNTLYLQMSSLRAEDTAVYYCARDVSRWSKTRWSYDNAMDVWGQGTLVTVSS
VL: B1 VL with N31S, A33Y, A51S, N52D, T91S, S97N, G98A, F101L
On to B6, for which the binding entry is on record as “binds” with human ROR1 (human) [1]; “binds” with mouse ROR1 (mouse) [2]; “binds” with FZD+KRD (human) [3]; “no binding (tested: 300 nM)” in the assay with KRD (human); “binds” with human ROR1 (human) [4]; “binds” in the assay with mouse ROR1 (mouse) [5].

B7: P015002 (antibody, V domains shown)
VH: B6 VH
VL: QSVLTQPPSASGTPGQRVTISCTGSSSNIGSNYVSWYRQLPGTAPKLLIYSDSNRPSGVPDRFSGSKSGTSASLAISGLRSEDEADYYCATWDASLSAYVFGGGTKLTVL
B7: the binding entry with human ROR1 (human) [1] is “binds”; with mouse ROR1 (mouse) [2] it was “binds”; in the assay with FZD+KRD (human) [3], “binds”; with KRD (human) it was “no binding (tested: 300 nM)”; with human ROR1 (human) [4], “binds”; with mouse ROR1 (mouse) [5], “binds”.

B8: P015002 scFv (scFv, V domains shown)
VH: B6 VH
VL: B7 VL
Turning to B8, the binding result with FZD+KRD (human) [6] was “binds”.

These data come from patent US20260028400A1.
